Source: paper PMC5656757
Read-outs that look alike come from different tables or passages of the source. These are yes or no findings as the source states them, for the method shown. Binding seen in cells or lysates may run through a third protein. A yes stands for co-enrichment or nearness to the bait. Other partners may have been found.

Sequences of proteins named here, by UniProt entry; tags and fusion partners are left off.
UniProt P08013: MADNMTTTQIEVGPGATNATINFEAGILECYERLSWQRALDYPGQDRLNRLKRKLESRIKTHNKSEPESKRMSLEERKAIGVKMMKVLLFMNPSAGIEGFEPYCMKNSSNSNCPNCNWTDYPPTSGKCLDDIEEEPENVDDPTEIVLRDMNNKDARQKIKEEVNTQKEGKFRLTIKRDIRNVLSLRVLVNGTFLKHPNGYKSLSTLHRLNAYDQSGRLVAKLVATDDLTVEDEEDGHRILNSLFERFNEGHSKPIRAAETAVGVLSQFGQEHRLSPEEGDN
UniProt O75643: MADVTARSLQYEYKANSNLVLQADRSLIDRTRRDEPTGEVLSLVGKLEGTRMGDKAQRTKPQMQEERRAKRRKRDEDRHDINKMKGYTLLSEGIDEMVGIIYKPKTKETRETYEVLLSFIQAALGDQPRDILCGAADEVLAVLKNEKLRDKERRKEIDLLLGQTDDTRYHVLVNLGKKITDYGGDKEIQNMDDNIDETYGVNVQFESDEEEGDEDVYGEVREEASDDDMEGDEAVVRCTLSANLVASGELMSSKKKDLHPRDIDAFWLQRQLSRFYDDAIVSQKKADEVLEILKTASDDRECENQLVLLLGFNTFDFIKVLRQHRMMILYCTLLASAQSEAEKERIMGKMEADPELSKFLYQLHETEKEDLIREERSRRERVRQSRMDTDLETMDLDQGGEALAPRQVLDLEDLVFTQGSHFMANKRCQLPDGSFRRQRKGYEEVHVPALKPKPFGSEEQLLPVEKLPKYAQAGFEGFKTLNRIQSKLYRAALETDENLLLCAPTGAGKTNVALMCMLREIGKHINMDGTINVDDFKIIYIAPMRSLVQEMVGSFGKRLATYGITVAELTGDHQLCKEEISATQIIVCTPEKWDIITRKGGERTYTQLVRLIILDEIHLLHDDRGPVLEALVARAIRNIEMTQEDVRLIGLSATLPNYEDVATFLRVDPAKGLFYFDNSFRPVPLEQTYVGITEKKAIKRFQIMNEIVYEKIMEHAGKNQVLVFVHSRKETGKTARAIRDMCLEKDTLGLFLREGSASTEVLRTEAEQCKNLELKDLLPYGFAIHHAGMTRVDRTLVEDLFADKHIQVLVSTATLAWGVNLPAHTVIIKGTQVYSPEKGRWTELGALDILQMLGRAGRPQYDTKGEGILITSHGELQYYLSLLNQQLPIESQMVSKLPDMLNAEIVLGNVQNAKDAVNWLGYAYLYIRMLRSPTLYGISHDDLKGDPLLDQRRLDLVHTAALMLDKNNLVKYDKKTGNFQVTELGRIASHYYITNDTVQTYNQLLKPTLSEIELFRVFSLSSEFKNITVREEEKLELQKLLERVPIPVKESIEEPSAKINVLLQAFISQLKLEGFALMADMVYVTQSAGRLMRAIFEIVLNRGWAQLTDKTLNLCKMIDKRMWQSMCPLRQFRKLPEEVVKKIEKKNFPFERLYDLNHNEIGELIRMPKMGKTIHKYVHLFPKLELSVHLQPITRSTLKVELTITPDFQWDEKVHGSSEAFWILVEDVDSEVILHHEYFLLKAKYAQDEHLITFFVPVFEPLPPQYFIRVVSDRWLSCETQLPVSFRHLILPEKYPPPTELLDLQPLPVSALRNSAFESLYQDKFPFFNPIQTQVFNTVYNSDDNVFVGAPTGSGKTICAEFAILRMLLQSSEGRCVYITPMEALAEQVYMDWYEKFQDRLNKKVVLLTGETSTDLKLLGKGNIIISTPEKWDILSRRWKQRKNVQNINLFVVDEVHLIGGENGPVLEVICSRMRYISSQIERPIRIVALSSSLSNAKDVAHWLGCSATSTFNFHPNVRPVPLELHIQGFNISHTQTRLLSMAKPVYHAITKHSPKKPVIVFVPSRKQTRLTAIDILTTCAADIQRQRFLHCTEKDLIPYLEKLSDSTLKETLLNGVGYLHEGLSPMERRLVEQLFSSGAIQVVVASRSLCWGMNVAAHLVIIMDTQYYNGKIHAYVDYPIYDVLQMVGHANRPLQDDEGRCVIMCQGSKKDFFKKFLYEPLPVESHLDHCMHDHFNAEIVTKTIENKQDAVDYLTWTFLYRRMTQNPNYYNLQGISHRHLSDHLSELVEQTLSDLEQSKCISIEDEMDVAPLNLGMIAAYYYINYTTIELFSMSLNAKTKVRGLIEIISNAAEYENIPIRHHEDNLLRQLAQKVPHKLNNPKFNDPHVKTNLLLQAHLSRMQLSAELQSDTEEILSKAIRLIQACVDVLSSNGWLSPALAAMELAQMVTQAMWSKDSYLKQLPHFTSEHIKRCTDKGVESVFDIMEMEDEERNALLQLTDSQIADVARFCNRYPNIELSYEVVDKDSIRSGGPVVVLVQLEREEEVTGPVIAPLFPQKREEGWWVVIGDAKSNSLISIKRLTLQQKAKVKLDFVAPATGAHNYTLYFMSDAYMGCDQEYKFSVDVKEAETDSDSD

B1: ILF3 (protein, UniProt Q12906 1-894)
chain: MRPMRIFVNDDRHVMAKHSSVYPTQEELEAVQNMVSHTERALKAVSDWIDEQEKGSSEQAESDNMDVPPEDDSKEGAGEQKTEHMTRTLRGVMRVGLVAKGLLLKGDLDLELVLLCKEKPTTALLDKVADNLAIQLAAVTEDKYEILQSVDDAAIVIKNTKEPPLSLTIHLTSPVVREEMEKVLAGETLSVNDPPDVLDRQKCLAALASLRHAKWFQARANGLKSCVIVIRVLRDLCTRVPTWGPLRGWPLELLCEKSIGTANRPMGAGEALRRVLECLASGIVMPDGSGIYDPCEKEATDAIGHLDRQQREDITQSAQHALRLAAFGQLHKVLGMDPLPSKMPKKPKNENPVDYTVQIPPSTTYAITPMKRPMEEDGEEKSPSKKKKKIQKKEEKAEPPQAMNALMRLNQLKPGLQYKLVSQTGPVHAPIFTMSVEVDGNSFEASGPSKKTAKLHVAVKVLQDMGLPTGAEGRDSSKGEDSAEETEAKPAVVAPAPVVEAVSTPSAAFPSDATAEQGPILTKHGKNPVMELNEKRRGLKYELISETGGSHDKRFVMEVEVDGQKFQGAGSNKKVAKAYAALAALEKLFPDTPLALDANKKKRAPVPVRGGPKFAAKPHNPGFGMGGPMHNEVPPPPNLRGRGRGGSIRGRGRGRGFGGANHGGYMNAGAGYGSYGYGGNSATAGYSQFYSNGGHSGNASGGGGGGGGGSSGYGSYYQGDNYNSPVPPKHAGKKQPHGGQQKPSYGSGYQSHQGQQQSYNQSPYSNYGPPQGKQKGYNHGQGSYSYSNSYNSPGGGGGSDYNYESKFNYSGSGGRSGGNSYGSGGASYNPGSHGGYGGGSGGGSSYQGKQGGYSQSNYNSPGSGQNYSGPPSSYQSSQGGYGRNADHSMNYQYR

Key:
[1] = target: N-terminal V5-tagged FLUBV NS1 protein (strain B/Yamagata/1/73) (influenza B virus (strain B/Yamagata/1/73)) (UniProt P08013); test: affinity purification with mass spectrometry
[2] = target: N-terminal V5-tagged FLUBV NS1 protein (strain B/Yamagata/1/73) (influenza B virus (strain B/Yamagata/1/73)) (UniProt P08013); test: affinity purification with mass spectrometry; remark: listed apart in the source

| Molecule | binding [1] | binding [2] |
| --- | --- | --- |
| SNRNP200 (from UniProt O75643 1-2136) | binds | – |
| B1 | – | binds |
